# In patent US20170042842:
# By UniProt entry, the sequences of proteins in these tests, tags left out. Where a name states a change or a piece, a line headed by the entry shows the natural chain unless it says otherwise.
# UniProt P32114: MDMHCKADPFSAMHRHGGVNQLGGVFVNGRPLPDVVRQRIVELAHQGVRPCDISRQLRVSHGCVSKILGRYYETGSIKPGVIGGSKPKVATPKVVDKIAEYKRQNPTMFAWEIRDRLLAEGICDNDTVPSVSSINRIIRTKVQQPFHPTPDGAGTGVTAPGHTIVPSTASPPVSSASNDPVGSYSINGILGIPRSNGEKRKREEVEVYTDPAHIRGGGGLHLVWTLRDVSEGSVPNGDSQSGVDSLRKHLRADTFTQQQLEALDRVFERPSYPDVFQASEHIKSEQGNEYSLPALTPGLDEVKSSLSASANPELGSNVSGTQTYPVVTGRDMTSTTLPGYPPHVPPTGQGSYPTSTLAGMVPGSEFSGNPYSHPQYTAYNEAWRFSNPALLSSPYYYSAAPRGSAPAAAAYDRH
# UniProt P48432: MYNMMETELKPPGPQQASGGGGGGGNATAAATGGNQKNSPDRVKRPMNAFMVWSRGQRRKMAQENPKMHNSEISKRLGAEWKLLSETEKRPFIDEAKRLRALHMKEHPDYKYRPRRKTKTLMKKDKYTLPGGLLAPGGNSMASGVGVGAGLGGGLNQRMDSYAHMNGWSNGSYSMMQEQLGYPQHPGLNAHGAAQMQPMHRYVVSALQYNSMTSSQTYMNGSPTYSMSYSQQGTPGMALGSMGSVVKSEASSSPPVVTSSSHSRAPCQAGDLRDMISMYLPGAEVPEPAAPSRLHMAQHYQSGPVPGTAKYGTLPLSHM
# The exact form of at least one protein or probe is not confirmed. For part of these data: Negatives hold for the conditions tested. For part of these data: A weaker result is weaker than the reference pair of the same experiment. For part of these data: At least one result comes from cells or an extract, where the contact may be indirect.
# Experiments:
# Pax2 [1] = target: Pax2 (UniProt P32114); experiment: binding assay; details: ChIP-PCR in OC-1 and HEK cells; IgG control negative; 4x-site construct also precipitated; reduced by Pax2 or Sox2 siRNA; protein in cells; protein details: transfected cDNA in OC-1/HEK/IEC6 cells
# Sox2 [2] = target: Sox2 (UniProt P48432); experiment: binding assay; details: ChIP-PCR in OC-1 and HEK cells; control serum negative; 4x-site construct also precipitated; protein in cells; protein details: transfected cDNA in OC-1/HEK/IEC6 cells
# [3] = test system: Pax2 + Sox2 (co-expressed); experiment: activity in cells; details: protein in cells, protein details: co-transfected cDNAs, only the site is given
# Pax2 [4] = target: Pax2 (UniProt P32114); experiment: activity in cells; details: Pax2 alone gives no activation of the reporter; protein in cells; protein details: transfected cDNA in OC-1/HEK/IEC6 cells; only the site is given
# Sox2 [5] = target: Sox2 (UniProt P48432); experiment: activity in cells; details: Sox2 alone gives no activation of the reporter; protein in cells; protein details: transfected cDNA in OC-1/HEK/IEC6 cells; only the site is given
Sequence,binding result (Pax2 [1]),binding result (Sox2 [2]),"activity on this sequence ([3]; 4x-site luciferase reporter in IEC6, activation doubled by co-transfection, 1 ng each)","activity on this sequence ([3]; luciferase reporter, reduced activity, still activated by Pax2 and Sox2 together)",activity on this sequence (Pax2 [4]),activity on this sequence (Sox2 [5]),"activity on this sequence ([3]; luciferase reporter, not activated by Pax2 and Sox2 together)"
CCAAACAAACAAAGAGTCAGCACTTCTTAAAGTAA (double strand),binds,binds,active,–,–,–,–
CCAAACAAACAAATGACTGACGAGTCAGCACTTCTTAAAGTAA (double strand) [Mutation 1 (8 bases added between Sox2 and Pax2 sites)],–,–,–,less active,not active,not active,–
CCAAGTAAAGTAAAGCTTAGGCACTTCTTAAAGTAA (double strand) [Mutation 2 (both Sox2 and Pax2 sites mutated)],–,–,–,–,not active,not active,not active
